In paper PMC7819943, “Rice protein-binding microarrays: a tool to detect cis-acting elements near promoter regions in rice”:
The list shows a part of the results.

Chains of the proteins cited; added tags and fusions are not shown.
UniProt Q0JBA9, entry or part of it: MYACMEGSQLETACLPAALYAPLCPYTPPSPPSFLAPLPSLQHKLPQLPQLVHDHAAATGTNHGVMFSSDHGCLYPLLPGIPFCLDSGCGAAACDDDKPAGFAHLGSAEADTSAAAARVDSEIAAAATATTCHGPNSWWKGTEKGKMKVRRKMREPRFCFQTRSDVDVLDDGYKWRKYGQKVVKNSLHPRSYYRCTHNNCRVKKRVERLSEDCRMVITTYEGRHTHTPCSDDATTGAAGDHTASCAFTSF

biological target: OsWRKY34 (Oryza sativa, UniProt Q0JBA9 1-250); assay: protein-binding microarray (RPBM); PBS, 2% BSA, 51.3 ng/ul salmon testes DNA, 50 uM zinc acetate, 200 nM TF, 25 C, 1 h; high values mean tight binding; details: protein: recombinant; tags: N-terminal polyhistidine and DsRed monomer fusion (pET32a); label: CyDye5-dUTP incorporated in the synthesized complementary strand; 3' TTTTT single-stranded linker to array surface; dsDNA, one strand shown
Procedure, shortened: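 Ni–NTA purification followed expression in E. coli BL21-CodonPlus of transcription factors fused N-terminally to a polyhistidine tag and DsRed. At 200 nM in PBS with 2% BSA, salmon testes DNA and 50 µM zinc acetate, the protein was incubated for 1 h at 25 °C with a custom Agilent array that had been primer-extended with Cy5-dUTP and blocked with 2% BSA. After washing, the array was read on an Axon 4000B scanner. The binding signal is per-feature fluorescence intensity in arbitrary units.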

Row | Sequence | binding signal
1 | AGTTGATCTGCACCGGTTTTCAAAGTTTGGGAATGTGTTACGGAGTCACCTAGTGCAG | 8850 fluorescence intensity (a.u.)
2 | GGTCAATTTAGGGCACACACCAAACCAGCCCTTACAACTTCGGAGTCACCTAGTGCAG | 8620 fluorescence intensity (a.u.)
3 | GCATGCACAGTCACACACCCACACCCAAACAGAACAAAAACGGAGTCACCTAGTGCAG | 8640 fluorescence intensity (a.u.)
4 | CTAAATCTTAGCAGGACCCACCACATACCATGTTTTATACCGGAGTCACCTAGTGCAG | 8660 fluorescence intensity (a.u.)
5 | GGTGCTTTTGGTCAGTGGGAGATAGATATGGTTGCTATGTCGGAGTCACCTAGTGCAG | 8120 fluorescence intensity (a.u.)
6 | TCCTCCTTTCTCGCTCTCGCTCTGTCCGATCGGAGCCATGCGGAGTCACCTAGTGCAG | 8490 fluorescence intensity (a.u.)
7 | CATACTGATGCATCCTTTTTTGTGTCCACCTTTTGTTTTTCGGAGTCACCTAGTGCAG | 8130 fluorescence intensity (a.u.)
8 | GTATCTGTTGGAGGTCCATTTTCATCTCGCATATGCCATACGGAGTCACCTAGTGCAG | 12000 fluorescence intensity (a.u.)
9 | GCGATTATGTGGTCTGTTATCAAAATTATGGCAAATTGTTCGGAGTCACCTAGTGCAG | 9250 fluorescence intensity (a.u.)
10 | TCTCGTCTTCCGCCCACTGTGTCCGGGCCCCACCATCCCTCGGAGTCACCTAGTGCAG | 8140 fluorescence intensity (a.u.)
11 | TACGAATTGTCAGGTAAATATTTCAGTCTGGTCTTTTCTCCGGAGTCACCTAGTGCAG | 9070 fluorescence intensity (a.u.)
12 | CGTTTTCTTTCTTGTTTTCAGGCACCAAATCTCTGCTGTTCGGAGTCACCTAGTGCAG | 11200 fluorescence intensity (a.u.)
13 | CCACGACACCGCTTCCAGCCCACGCAACCCTCGAACAATGCGGAGTCACCTAGTGCAG | 8170 fluorescence intensity (a.u.)
14 | TAGACTATTATCCTTTTAGACCTTTTGTTTGTAGCTAATTCGGAGTCACCTAGTGCAG | 8750 fluorescence intensity (a.u.)
15 | TGGGAGTGTTGTTATTCTCGTGCGCGTTGTGGTTAGTGGGCGGAGTCACCTAGTGCAG | 9630 fluorescence intensity (a.u.)
16 | TAGTGCATTATCCGTTCGTATCCGCTCCGTTTTCATCTCCCGGAGTCACCTAGTGCAG | 13300 fluorescence intensity (a.u.)
17 | GAATATCTGAACTTTCCCCGTTCTATTGTCCATGCATACGCGGAGTCACCTAGTGCAG | 8070 fluorescence intensity (a.u.)
18 | TCGACTCCTAACTGCAGCTCATGATTTTCTATATATATATCGGAGTCACCTAGTGCAG | 11400 fluorescence intensity (a.u.)
19 | GTCTCATCTTCCTCAGGGTTCACAATTCCGATGAAAATCGCGGAGTCACCTAGTGCAG | 8430 fluorescence intensity (a.u.)
20 | CCCACCACACCAGTAACCATAATTAACCTCTTCCTCACTGCGGAGTCACCTAGTGCAG | 8300 fluorescence intensity (a.u.)
21 | GAATCCATTAGCTTATACTCTCTCCATCTATTTTTGATAACGGAGTCACCTAGTGCAG | 9190 fluorescence intensity (a.u.)
22 | CCGCCACCGCCACCTCGCTGTCGTGGCTACCTCAGCCGTCCGGAGTCACCTAGTGCAG | 9190 fluorescence intensity (a.u.)
23 | GGCTGGAACGTCGAAATCCTCCGCCTCGCCGCGTGCCTCTCGGAGTCACCTAGTGCAG | 10800 fluorescence intensity (a.u.)
24 | GTTTTTCATATTTGACGATCAAACGGTGGTTTTAAAACTTCGGAGTCACCTAGTGCAG | 8140 fluorescence intensity (a.u.)
25 | GCCAATCTACTATACATGTTAGGTTTAACATTGACTAACACGGAGTCACCTAGTGCAG | 8810 fluorescence intensity (a.u.)
26 | TCTGCCCGTCTGACTCTTGACTAGAGTATTTTACATCAATCGGAGTCACCTAGTGCAG | 8820 fluorescence intensity (a.u.)
27 | TTCCAGTCATTTGCCCCTTTGACCTTGGTAGCTGTAACGCCGGAGTCACCTAGTGCAG | 10800 fluorescence intensity (a.u.)

4 entries from above, field by field:
GAATCCATTAGCTTATACTCTCTCCATCTATTTTTGATAACGGAGTCACCTAGTGCAG
  binding signal: 9190 fluorescence intensity (a.u.)
CCGCCACCGCCACCTCGCTGTCGTGGCTACCTCAGCCGTCCGGAGTCACCTAGTGCAG
  binding signal: 9190 fluorescence intensity (a.u.)
GGCTGGAACGTCGAAATCCTCCGCCTCGCCGCGTGCCTCTCGGAGTCACCTAGTGCAG
  binding signal: 10800 fluorescence intensity (a.u.)
GTTTTTCATATTTGACGATCAAACGGTGGTTTTAAAACTTCGGAGTCACCTAGTGCAG
  binding signal: 8140 fluorescence intensity (a.u.)

Next part

Row | Sequence | binding signal
28 | CATATGCTTCACTTACCTCTACCAGCTGCTACTGCTTCTACGGAGTCACCTAGTGCAG | 12100 fluorescence intensity (a.u.)
29 | ATCCTGTTTGATATCAGCTCGCCCTCGCTGGGCGTGTCGACGGAGTCACCTAGTGCAG | 9310 fluorescence intensity (a.u.)
30 | TGTTCACACGTATTCCTTGCCCATGTCACCAAAATCTCAACGGAGTCACCTAGTGCAG | 10200 fluorescence intensity (a.u.)
31 | TACTTACCGATTTCATCAGCATTCTTGTTTCAGAGTAAGACGGAGTCACCTAGTGCAG | 8510 fluorescence intensity (a.u.)
32 | TCTCGGGATCATCAGTTCACTATTGTAATATGTGGTATTTCGGAGTCACCTAGTGCAG | 8110 fluorescence intensity (a.u.)
33 | GTCAATTCTCAATCGTTTTCCGTCCGCCTTGATCGCTATTCGGAGTCACCTAGTGCAG | 11800 fluorescence intensity (a.u.)
34 | TCTACTCCAGCATTGCTGCTGCGCGACTCGCCGTCCTCCACGGAGTCACCTAGTGCAG | 8340 fluorescence intensity (a.u.)
35 | GCTGCCGATTGATGATTCCCTGCCGCCCGCGCCACAAAAACGGAGTCACCTAGTGCAG | 8680 fluorescence intensity (a.u.)
36 | AGATTTTCGCTTGTTTCATCCAACCCCTGTACCGTGCGCACGGAGTCACCTAGTGCAG | 10400 fluorescence intensity (a.u.)
37 | TGATGTCTTATCTCGGGTCTCATCTTTTCGCTTATGCTTACGGAGTCACCTAGTGCAG | 8990 fluorescence intensity (a.u.)
38 | CAGTCCCAGTGCACCAGCCAGTCATCACCAACCACCATCCCGGAGTCACCTAGTGCAG | 8490 fluorescence intensity (a.u.)
39 | ACCTCCTCCGGAGCTTCGCCCCTAGCCTCAGCCGCGCCCTCGGAGTCACCTAGTGCAG | 11100 fluorescence intensity (a.u.)
40 | CCATCGTCTACCTGTACGTACGTATATACCAAGCTAGTTACGGAGTCACCTAGTGCAG | 8790 fluorescence intensity (a.u.)
41 | CGTCGATCTCTATCTCTCTCTCTCGCTTGTTCTTCTTCACCGGAGTCACCTAGTGCAG | 15200 fluorescence intensity (a.u.)
42 | TTCCTTATCTGTCTATCACACACCACCTGAGTCACTGACACGGAGTCACCTAGTGCAG | 9420 fluorescence intensity (a.u.)
43 | ATATACTACTAGCTCATCATATTGTTTACTACTATATAAACGGAGTCACCTAGTGCAG | 9770 fluorescence intensity (a.u.)
44 | AATCACAACTCTTCACCATTCACTTTTACCTGTTTTTGTTCGGAGTCACCTAGTGCAG | 9390 fluorescence intensity (a.u.)
45 | CCATCGAAAAAAGACCCTTTTTTCACCCAAGCTTTCTTGCCGGAGTCACCTAGTGCAG | 8480 fluorescence intensity (a.u.)
46 | TTCCACACCAACCTATTCATGTTCCTGGTCGTCAACCTCGCGGAGTCACCTAGTGCAG | 10000 fluorescence intensity (a.u.)
47 | CTTTGTCCATATGACGTATCCGCAGGGGCAGATCCTCTCTCGGAGTCACCTAGTGCAG | 8060 fluorescence intensity (a.u.)
48 | AGGTGAACAAAATCGTCTTTGCCTTTCATCACCCTTTACACGGAGTCACCTAGTGCAG | 8870 fluorescence intensity (a.u.)
49 | GGATAGCTGGGTCCCACGGTAGTAACGGCCGGCTTCACCACGGAGTCACCTAGTGCAG | 8290 fluorescence intensity (a.u.)
50 | AGTTGGCTGCTGCTTCTCCTCCTTCCCAGCAGCCATACCACGGAGTCACCTAGTGCAG | 8940 fluorescence intensity (a.u.)
51 | AATACCTTAAAATCCTTTTATACCGCAGTTACTCAACTTTCGGAGTCACCTAGTGCAG | 8290 fluorescence intensity (a.u.)
52 | TAATACTCTTTTCTGTTAACTTCTCTCTTTTTATTTACCACGGAGTCACCTAGTGCAG | 8520 fluorescence intensity (a.u.)
53 | ATGCCATGTGCTGAGGAACAATCTACTCTACCTGCCGTCGCGGAGTCACCTAGTGCAG | 8500 fluorescence intensity (a.u.)
54 | TTTTCCATCACATTAACCTGTCATACACACAAAACTTTTCCGGAGTCACCTAGTGCAG | 9070 fluorescence intensity (a.u.)
